Measurements as given in PubChem BioAssay AID624297 (National Center for Advancing Translational Sciences (NCATS), 2012).
About 6,200 (1.8%) of roughly 340,000 compounds were called active. The shares of active, inactive and inconclusive entries below differ from those in the screen. The call rests on the fitted dose curve; in most records, active means well fitted activation curve with a large enough effect; inconclusive means small, poorly fitted or top-dose-only effect; inactive means no such curve, though single readings can be large or run the other way. A potency beside an inconclusive call is a rough fit, not a confirmed value.

Experiment: A quantitative high throughput screen for small molecules that induce DNA re-replication in SW480 colon adenocarcinoma cells. Further: nearly all actives have a fitted effect of over 55% in size.
Conditions: Hoechst DNA content imaging, 48 h; series mostly up to 46.1 µM
Summary of the method: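 Image-based read-out: total Hoechst fluorescence of nuclei (405 nm excitation, 500-530 nm emission), with hits raising the fraction of high-intensity nuclei. SW480 colon cells incubated 48 hr with compounds at 37 C.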
Potency means the concentration at half of the fitted maximal effect.

SMILES	Potency
O=C(NNC(=S)Nc1ccccc1)c1cccnc1	inconclusive: 6.51 µM [activator, single point]
CC(C)C(C)NC(=O)CN1C(=O)NC2(CCc3ccccc32)C1=O (stereo not given)	inactive
Cc1ccc(C2=Nc3ccccc3N=C(C(Cl)Cl)C2)cc1	inconclusive: 16.4 µM [activator, single point]
CN(CCCNC(=O)c1cccn2c(=O)c3ccccc3nc12)Cc1ccccc1	inconclusive: 29.1 µM [activator, single point]
Cc1ccc(NC(=O)Cn2c(/C=C/c3ccccc3)nc3ccccc32)cc1C	inconclusive: 14.6 µM [activator, partial curve, poor fit]
Cc1ccc(-c2nn3c(C)nnc3s2)cc1NC(=O)c1ccc(-c2cccc(Cl)c2)o1	inconclusive: 23.1 µM [activator, single point]
Cc1ccc(CNC(=O)CC(C)S(=O)(=O)c2ccc3c(c2)NC(=O)CS3)o1 (stereo not given)	inconclusive: 2.59 µM [activator, single point]
COc1ccccc1N1CCN(C(=O)c2ccc(Cl)c(S(=O)(=O)NCc3ccco3)c2)CC1	inconclusive: 5.01 µM [activator, single point]
CC(=O)n1cc(N(C(=O)CCl)c2ccccc2)c2ccccc21	active: 1.64 µM
Cc1cccc2[nH]c3c(N4CCN(C(=O)c5ccco5)CC4)ncnc3c12	inactive
C/C(=N/NC(=O)c1ccc(C)nc1)c1ccc2c(c1)CCCC2	inconclusive: 18.4 µM [activator, single point]
COc1ccc(NC(=O)n2ncc3c(C)cccc32)cc1	inconclusive: 29.1 µM [activator, single point]
OC1COC(c2ccccc2)OC1C(O)C1OC(c2ccccc2)OCC1O (stereo not given)	inactive
CCC(C(=O)NCCc1ccc(S(N)(=O)=O)cc1)c1ccccc1 (stereo not given)	inactive
O=C(c1cccc2ccccc12)C1CCCN(C(=O)c2ccc(N3CCOCC3)cc2)C1 (stereo not given)	inconclusive: 29.1 µM [activator, single point]
CCOc1ccc(NC(=S)Nc2cc(C)[nH]n2)cc1	inactive
Cc1ccc(/C=C(\C#N)c2nn(-c3ccccc3)c(N)c2C#N)cc1	inactive
CCOC(=O)c1c(C)[nH]c(C)c1C(=O)COC(=O)CSc1ccc(C)cc1	inconclusive: 29.1 µM [activator, partial curve, poor fit]
O=C(Nc1ccc(Cl)cc1)Nc1ccccc1C(=O)O	inconclusive: 20.6 µM [activator, single point]
CCOC(=O)Cc1csc(NC(=O)/C=C/c2ccc(Cl)cc2)n1	inconclusive: 29.1 µM [activator, single point]

As entered above:
`Cc1ccc(-c2nn3c(C)nnc3s2)cc1NC(=O)c1ccc(-c2cccc(Cl)c2)o1` – Potency: inconclusive: 23.1 µM [activator, single point]
`Cc1ccc(/C=C(\C#N)c2nn(-c3ccccc3)c(N)c2C#N)cc1` – Potency: inactive
